Test results taken from patent publication US5874218.

Chains of the proteins cited; added tags and fusions are not shown. A line that says so, or that is headed by a name, gives the form on record, which may keep a tag or linker.
hTSH (thyroid stimulating hormone) (Homo sapiens), one chain, as listed by the source, chain 2 of 2: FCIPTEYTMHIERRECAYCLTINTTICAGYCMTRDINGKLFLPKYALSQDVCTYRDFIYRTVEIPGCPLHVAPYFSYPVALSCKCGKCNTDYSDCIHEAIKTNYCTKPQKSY
hTSH (thyroid stimulating hormone) (Homo sapiens), one chain, as listed by the source, chain 1 of 2: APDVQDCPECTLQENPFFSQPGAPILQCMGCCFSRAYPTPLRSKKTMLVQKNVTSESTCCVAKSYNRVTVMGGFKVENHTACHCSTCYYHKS
hLH (printed hLS) (Homo sapiens), one chain, as listed by the source, chain 2 of 2: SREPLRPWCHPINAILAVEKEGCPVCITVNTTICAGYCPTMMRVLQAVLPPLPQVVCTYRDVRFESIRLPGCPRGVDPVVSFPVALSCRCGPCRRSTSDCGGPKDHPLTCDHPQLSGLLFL
hFSH (Homo sapiens), one chain, as listed by the source, chain 2 of 2: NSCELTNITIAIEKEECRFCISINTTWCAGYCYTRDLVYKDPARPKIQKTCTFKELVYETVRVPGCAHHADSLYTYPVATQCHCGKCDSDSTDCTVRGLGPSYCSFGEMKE

Key:
Assay in all cases: binding assay
[1] = tested on: hTSH (thyroid stimulating hormone) (Homo sapiens); conditions: 2'-NH2 on all C and U; CITED; from US application 08/488,402; purified native protein; protein details: Becton Dickinson, Mr 27,700, 9 IU/mg; label: internally radiolabeled
[2] = tested on: hCG (chorionic gonadotropin) (Homo sapiens); conditions: 2'-NH2 on all C and U; CITED; unable to bind with high affinity, especially with competing tRNA; purified native protein; label: internally radiolabeled
hFSH (Homo sapiens) = conditions: 2'-NH2 on all C and U; CITED; unable to bind with high affinity, especially with competing tRNA; label: internally radiolabeled
[3] = tested on: hLH (printed hLS) (Homo sapiens); conditions: 2'-NH2 on all C and U; CITED; unable to bind with high affinity, especially with competing tRNA; label: internally radiolabeled

In the case of “GGGAGGACGAUGCGGAUGUUGGCAGCAGGGUCCGACGGCGUAACCUUGCCAGCUGCAGACGACUCGCCCGA [T-15]”, the pKd [1] was 8.60, the binding result [2] was “binds more weakly” and the binding result (hFSH (Homo sapiens)) was “binds more weakly”. “GGGAGGACGAUGCGGAUGUUGGCAGCAGGGUCCGACGGCGUAACCUUGCCAGCUGCAGACGACUCGCCCGA [T-15]”: binds more weakly [3].

pKd: −log10 of the molar value. Construct, isoform or probe ends are uncertain for at least one entry. For some of these results: Weaker means in comparison with the reference protein, sequence or condition of that experiment.
